# Test results: the supplement of paper PMC4635364
# Structures can show the parent of a compound that is named as a salt. Some of the results follow. Repeats in this data set agree poorly, so a single value says little.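 Human fetal ventral-midbrain neural progenitor line ReNCell VM, differentiated without mitogens. Images stained for doublecortin (early neurons) or tyrosine hydroxylase (dopaminergic neurons) were scored by blinded raters against untreated wells (0 = no change). Repeats and both raters were averaged, and compounds averaging 2 or higher were picked as hits for retesting.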
# Tests used:
# ReNCell VM [1] = assay: neuronal differentiation score (DCX+ cell fraction vs untreated, manual image score) (score (-3 to 3)); higher = more neuronal differentiation; settings: 2 uM, 2 weeks
# ReNCell VM [2] = assay: dopaminergic neuron differentiation score (TH+ cell fraction vs untreated, manual image score) (score (0 to 3)); higher = more TH+ dopaminergic neuron differentiation; settings: 2 uM, 4 weeks, BDNF 10 ng/ml + GDNF 10 ng/ml
structure (smiles),measurement,setting,value
CC(CN(C)C)C(C)(O)Cc1ccc(Cl)cc1 (stereo unspecified) [Clobutinol hydrochloride],neuronal differentiation score,ReNCell VM [1]; library: Prestwick,inactive: 0
same,dopaminergic neuron differentiation score,ReNCell VM [2]; library: Prestwick,inactive: 0
CC(=O)O[C@H]1CC(=O)OC(C)(C)[C@@H]2CC(=O)[C@]3(C)[C@H](CC[C@@]4(C)[C@@H](c5ccoc5)OC(=O)[C@H]5O[C@]543)[C@@]12C [nomilin],neuronal differentiation score,ReNCell VM [1]; library: Natural,active: 3
same,dopaminergic neuron differentiation score,ReNCell VM [2]; library: Natural,inactive: 0
O=C(O)P(=O)(O)O,neuronal differentiation score,ReNCell VM [1]; library: Spectrum,inactive: 0
same,dopaminergic neuron differentiation score,ReNCell VM [2]; library: Spectrum,inactive: 0
Cc1ccnc2c1NC(=O)c1cccnc1N2C1CC1,neuronal differentiation score,ReNCell VM [1]; library: Spectrum,inactive: 0
same,dopaminergic neuron differentiation score,ReNCell VM [2]; library: Spectrum,inactive: 0
O=C(O)CC/C=C\C[C@H]1CO[C@@H](c2ccccc2Cl)O[C@H]1c1ccccc1O,neuronal differentiation score,ReNCell VM [1]; library: Tocriscreen,inactive: 0
same,dopaminergic neuron differentiation score,ReNCell VM [2]; library: Tocriscreen,inactive: 0
C/C=C/c1ccc(OC(C)[C@@H](O)c2ccc(O)c(OC)c2)c(OC)c1 (stereo partly specified),neuronal differentiation score,ReNCell VM [1]; library: Natural,inactive: 0
same,dopaminergic neuron differentiation score,ReNCell VM [2]; library: Natural,inactive: 0
CN(C)CCN(Cc1ccccc1)c1ccccn1 [Tripelennamine hydrochloride],neuronal differentiation score,ReNCell VM [1]; library: Prestwick,inactive: 0
same,dopaminergic neuron differentiation score,ReNCell VM [2]; library: Prestwick,inactive: 0
O=C(NC(Cc1cc(=O)[nH]c2ccccc12)C(=O)O)c1ccc(Cl)cc1 (stereo unspecified),neuronal differentiation score,ReNCell VM [1]; library: Spectrum,inactive: 0
same,dopaminergic neuron differentiation score,ReNCell VM [2]; library: Spectrum,inactive: 0
O=C1CN(/N=C/c2ccc(-c3ccc([N+](=O)[O-])cc3)o2)C(=O)N1 [Dantrolene sodium salt],neuronal differentiation score,ReNCell VM [1]; library: Prestwick,inactive: 0
same,dopaminergic neuron differentiation score,ReNCell VM [2]; library: Prestwick,inactive: 0
CC(CNC1CCCCC1)OC(=O)c1ccccc1 (stereo unspecified) [Hexylcaine hydrochloride],neuronal differentiation score,ReNCell VM [1]; library: Prestwick,inactive: 0
same,dopaminergic neuron differentiation score,ReNCell VM [2]; library: Prestwick,inactive: 0
C=CCc1ccccc1OCC(O)CNC(C)C (stereo unspecified),neuronal differentiation score,ReNCell VM [1]; library: Spectrum,inactive: 0
same,dopaminergic neuron differentiation score,ReNCell VM [2]; library: Spectrum,inactive: 0
O=C1c2ccccc2C(Cc2ccnc(F)c2)(Cc2ccnc(F)c2)c2ccccc21,neuronal differentiation score,ReNCell VM [1]; library: Tocriscreen,inactive: 0
same,dopaminergic neuron differentiation score,ReNCell VM [2]; library: Tocriscreen,inactive: 0
COc1ccc(C(=O)c2ccccc2)c(O)c1 [Oxybenzone],neuronal differentiation score,ReNCell VM [1]; library: Prestwick,inactive: 0
same,dopaminergic neuron differentiation score,ReNCell VM [2]; library: Prestwick,inactive: 0
CCCCCCCC/C=C\CCCCCCCC(=O)NCCc1ccc(O)c(O)c1 [N-Oleoyldopamine],neuronal differentiation score,ReNCell VM [1]; library: LOPAC,inactive: 0
same,dopaminergic neuron differentiation score,ReNCell VM [2]; library: LOPAC,inactive: 0
COc1ccc(-c2oc3cc(OC)c(OC)c(OC)c3c(=O)c2OC)cc1,neuronal differentiation score,ReNCell VM [1]; library: Spectrum,inactive: 0
same,dopaminergic neuron differentiation score,ReNCell VM [2]; library: Spectrum,inactive: 0
CC(=O)NS(=O)(=O)c1ccc(N)cc1,neuronal differentiation score,ReNCell VM [1]; library: Spectrum,inactive: 1
same,dopaminergic neuron differentiation score,ReNCell VM [2]; library: Spectrum,inactive: 0
Clc1ccc(COC(Cn2ccnc2)c2ccc(Cl)cc2Cl)cc1 (stereo unspecified) [Econazole nitrate],neuronal differentiation score,ReNCell VM [1]; library: Prestwick,inactive: 0
same,dopaminergic neuron differentiation score,ReNCell VM [2]; library: Prestwick,inactive: 0
Cc1noc(NS(=O)(=O)c2ccc(N)cc2)c1C,neuronal differentiation score,ReNCell VM [1]; library: Spectrum,inactive: 1
same,dopaminergic neuron differentiation score,ReNCell VM [2]; library: Spectrum,inactive: 0
N#C/C(=C/c1ccc(O)c(O)c1)C(=O)N1CCc2ccccc21 [Tyrphostin AG 528],neuronal differentiation score,ReNCell VM [1]; library: LOPAC,inactive: 0
same,dopaminergic neuron differentiation score,ReNCell VM [2]; library: LOPAC,inactive: 0
Cc1cc(C)nc(NS(=O)(=O)c2ccc(N)cc2)n1 [Sulfamethazine sodium salt],neuronal differentiation score,ReNCell VM [1]; library: Prestwick,inactive: 0
same,dopaminergic neuron differentiation score,ReNCell VM [2]; library: Prestwick,inactive: 0
CCOc1nc2cccc(C(=O)O)c2n1Cc1ccc(-c2ccccc2-c2nnn[nH]2)cc1,neuronal differentiation score,ReNCell VM [1]; library: Spectrum,inactive: 0
same,dopaminergic neuron differentiation score,ReNCell VM [2]; library: Spectrum,inactive: 0
CC(=O)[C@@]1(O)CC[C@H]2[C@@H]3C[C@H](C)C4=CC(=O)C=C[C@]4(C)[C@@]3(F)[C@@H](O)C[C@@]21C,neuronal differentiation score,ReNCell VM [1]; library: Spectrum,inactive: 0
same,dopaminergic neuron differentiation score,ReNCell VM [2]; library: Spectrum,inactive: 0
COc1cc(/C=C/C(N)=O)cc(OC)c1OC,neuronal differentiation score,ReNCell VM [1]; library: Spectrum,inactive: 0
same,dopaminergic neuron differentiation score,ReNCell VM [2]; library: Spectrum,inactive: 0
CCCCC1(COC(=O)CCC(=O)O)C(=O)N(c2ccccc2)N(c2ccccc2)C1=O,neuronal differentiation score,ReNCell VM [1]; library: Spectrum,inactive: 0
same,dopaminergic neuron differentiation score,ReNCell VM [2]; library: Spectrum,inactive: 0
Cc1cc(C(C)(C)CC(C)(C)C)ccc1OCCOCC[N+](C)(C)Cc1ccccc1,neuronal differentiation score,ReNCell VM [1]; library: Spectrum,inactive: 0
same,dopaminergic neuron differentiation score,ReNCell VM [2]; library: Spectrum,inactive: 0
COc1cc2c(CCNC(C)=O)c[nH]c2cc1O [6-Hydroxymelatonin],neuronal differentiation score,ReNCell VM [1]; library: LOPAC,inactive: 0
same,dopaminergic neuron differentiation score,ReNCell VM [2]; library: LOPAC,inactive: 0
COc1ccc2c3c([nH]c2c1)[C@H]1C[C@H]2[C@H](C[C@@H](O)[C@H](OC)[C@H]2C(=O)O)CN1CC3 [Reserpinic acid hydrochloride],neuronal differentiation score,ReNCell VM [1]; library: Phytochemical,inactive: 0
same,dopaminergic neuron differentiation score,ReNCell VM [2]; library: Phytochemical,inactive: 0
Cc1c(CC(C)(C)C(=O)O)n(Cc2ccc(Cl)cc2)c2ccc(F)cc12,neuronal differentiation score,ReNCell VM [1]; library: Tocriscreen,inactive: 0
same,dopaminergic neuron differentiation score,ReNCell VM [2]; library: Tocriscreen,inactive: 0
COc1cc(NC(=O)c2ccccn2)ccc1Cl,neuronal differentiation score,ReNCell VM [1]; library: Tocriscreen,inactive: 0
same,dopaminergic neuron differentiation score,ReNCell VM [2]; library: Tocriscreen,inactive: 0
CN[C@H]1CC[C@@H](c2ccc(Cl)c(Cl)c2)c2ccccc21 [Sertraline],neuronal differentiation score,ReNCell VM [1]; library: Prestwick,inactive: 0
same,dopaminergic neuron differentiation score,ReNCell VM [2]; library: Prestwick,inactive: 0
CCCCc1oc2ccccc2c1C(=O)c1cc(I)c(OCCN(CC)CC)c(I)c1,neuronal differentiation score,ReNCell VM [1]; library: Spectrum,inactive: 0
same,dopaminergic neuron differentiation score,ReNCell VM [2]; library: Spectrum,inactive: 0
Cc1onc(-c2ccccc2)c1C(=O)N[C@@H]1C(=O)N2[C@@H]1SC(C)(C)[C@@H]2C(=O)O,neuronal differentiation score,ReNCell VM [1]; library: Spectrum,inactive: 0
same,dopaminergic neuron differentiation score,ReNCell VM [2]; library: Spectrum,inactive: 0
O=C(OCC(O)CO)c1ccccc1Nc1ccnc2cc(Cl)ccc12 (stereo unspecified),neuronal differentiation score,ReNCell VM [1]; library: Spectrum,inactive: 0
same,dopaminergic neuron differentiation score,ReNCell VM [2]; library: Spectrum,inactive: 0

# Given with tabs: entries from further up.
structure (smiles)	measurement	setting	value
CC(=O)[C@@]1(O)CC[C@H]2[C@@H]3C[C@H](C)C4=CC(=O)C=C[C@]4(C)[C@@]3(F)[C@@H](O)C[C@@]21C	dopaminergic neuron differentiation score	ReNCell VM [2]; library: Spectrum	inactive: 0
COc1cc(/C=C/C(N)=O)cc(OC)c1OC	neuronal differentiation score	ReNCell VM [1]; library: Spectrum	inactive: 0
same	dopaminergic neuron differentiation score	ReNCell VM [2]; library: Spectrum	inactive: 0
